Results taken from PMC6423756.
These are yes or no findings as the source states them, for the method shown. In cells and extracts the contact can be indirect. Some results given as binding are weak or reduced against the parent protein; the word gives no strength.

Amino acid sequences for entries named in this document (tags omitted).
UniProt P67870: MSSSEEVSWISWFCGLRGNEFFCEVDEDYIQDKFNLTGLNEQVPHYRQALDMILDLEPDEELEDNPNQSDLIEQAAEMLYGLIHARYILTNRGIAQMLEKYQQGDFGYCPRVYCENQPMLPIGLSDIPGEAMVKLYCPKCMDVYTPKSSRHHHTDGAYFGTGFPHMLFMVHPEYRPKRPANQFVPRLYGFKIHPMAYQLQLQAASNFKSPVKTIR
UniProt Q9BWC9: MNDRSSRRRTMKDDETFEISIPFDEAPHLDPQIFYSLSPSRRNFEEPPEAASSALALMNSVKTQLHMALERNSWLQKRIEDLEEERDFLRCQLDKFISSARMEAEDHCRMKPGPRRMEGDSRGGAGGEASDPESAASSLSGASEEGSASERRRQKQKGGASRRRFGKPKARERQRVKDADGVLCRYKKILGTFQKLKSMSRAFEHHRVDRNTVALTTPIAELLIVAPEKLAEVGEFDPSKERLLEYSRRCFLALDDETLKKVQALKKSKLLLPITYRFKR

Key:
[1] = target: endogenous CK2β protein (human (endogenous in HeLa)) (UniProt P67870); test: co-IP; endogenous proteins; HeLa lysates precipitated with murine anti-CK2β or preimmune murine IgG; blot with rabbit anti-CCDC106 and anti-CK2β
[2] = target: Myc-CCDC106 (wild-type CCDC106, coiled-coil domain-containing protein 106) (UniProt Q9BWC9); test: co-IP; HEK293 cells cotransfected with HA-CK2β and Myc-CCDC106, 24 h; lysates precipitated with rabbit anti-Myc antibody or preimmune rabbit IgG; blot with anti-Myc and anti-HA

Substance	binding [1]	binding [2]
endogenous CCDC106 protein (from UniProt Q9BWC9 1-280)	binds	–
HA-CK2β (regulatory β subunit of protein kinase CK2) (from UniProt P67870 1-215)	–	binds
